Results on 1 molecule are retold here after PMC11247094.

No constants are given. Whether binding was seen depends on the method and setting. Some entries that bind do so weakly or less than the wild type.

This experiment has as its target Respiratory syncytial virus matrix (M) protein (respiratory syncytial virus, strain rA2-mK+ (parent strain A2)) (UniProt P0DOE7). As to the kind of experiment: cryo-EM structure; whole-cell cryo-electron tomography and sub-tomogram averaging of the M layer in intact RSV rA2-mK+ virions from BEAS-2B cells; 38,771 sub-tomograms; 4.6 Å; PDB 4v23 M dimers fitted.

B1: Respiratory syncytial virus matrix (M) protein (protein, UniProt P0DOE7 1-256)
chain: METYVNKLHEGSTYTAAVQYNVLEKDDDPASLTIWVPMFQSSMPADLLIKELANVNILVKQISTPKGPSLRVMINSRSAVLAQMPSKFTICANVSLDERSKLAYDVTTPCEIKACSLTCLKSKNMLTTVKDLTMKTLNPTHDIIALCEFENIVTSKKVIIPTYLRSISVRNKDLNTLENITTTEFKNAITNAKIIPYSGLLLVITVTDNKGAFKYIKPQSQFIVDLGAYLEKESIYYVTTNWKHTATRFAIKPMED
In the case of B1, the binding entry is given as “binds”.
